This note sets out measurements from PubChem BioAssay AID445 (National Center for Advancing Translational Sciences (NCATS), 2006).

What is called AC50 is the midpoint of the concentration-response curve, whichever way the signal moves.

A short description of the test: IkB Signaling. Particulars: ABC-DLBCL IkBa-CBG/CBR dual luciferase ratio (green luciferase fused to IkBa over red control in OCI-Ly3 lymphoma cells), 4 h. The essentials:
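Curves were fitted separately to fusion (green), unfused (red) and ratio luminescence, then classed by r2, magnitude and activity. Cells: OCI-Ly3, 4 h compound plus doxycycline at 37C; 10 uM MG-132 defined full response.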

Setting [1] is: measured here: control luc red channel unless noted.

The other results are listed elsewhere or left out. These are further read-outs of the screen, such as a control signal, another cell line or another target. No call is given for them. The list favours compounds with an active or inconclusive main result. Words in brackets tell the shape of the fitted curve; partial curves, single points and poor fits give uncertain potencies.

In the case of `COc1ccc(-c2nc3sc(CCNC(=O)c4ccc(Br)o4)c(C)n3n2)cc1`, the AC50 under setting [1] was 25.1 µM [falling, partial curve].
For the compound `CCN(Cc1nc(-c2ccc(OC)c(OC)c2)no1)S(=O)(=O)c1ccc(OC)cc1`, the AC50 under setting [1] was 25.1 µM [falling, single point].
With `COc1ccc(C(c2sc3ncnn3c2O)N2CCN(c3ccccc3F)CC2)cc1OC` (centres undefined), under setting [1], the AC50 was 10 µM [falling, partial curve].
Same read-out and setting: for `O=C(CSc1nc(=O)n(Cc2ccccn2)c2c1CCC2)Nc1ccccc1` the value was 25.1 µM [falling, partial curve]; for `CC(C)(C)OC(=O)N1CCC(c2c(C(=O)NC3CCCCC3)cnn2-c2ccc(F)cc2F)CC1`, 31.6 µM [falling, partial curve]; for `Cc1ccc(S(=O)(=O)C(CNS(=O)(=O)c2cc(F)ccc2F)c2cccs2)cc1` (centres undefined), 0.316 µM [falling, full curve, poor fit].
Same read-out and setting: with `O=C1CN(C(=O)c2ccc(S(=O)(=O)N3CCCC3)cc2)C(c2ccccc2)c2cc(F)ccc2N1` (centres undefined) the figure was 0.794 µM [falling, full curve]; with `Cc1ccccc1-c1noc(-c2ccccc2OCC(=O)Nc2cccc([N+](=O)[O-])c2)n1`, 39.8 µM [falling, single point].
Same read-out and setting: with `Cc1nc(-c2ccc(F)cc2)sc1CCNC(=O)Cc1ccc(F)cc1` the figure was 10 µM [falling, partial curve]; with `CCn1cc2nc(SCc3ccccc3Cl)n(Cc3ccc(OC)cc3)c(=O)c2n1`, 10 µM [falling, partial curve].
`COc1ccc(-c2c(C)c3ccc(O)c(CN4CCC(C)CC4)c3oc2=O)cc1OC`: the AC50 under setting [1] was 25.1 µM [falling, partial curve, poor fit].
Still for that read-out and setting: with `COc1ccc(C(Nc2ccccn2)c2ccc3ccc(C)nc3c2O)cc1C` (centres undefined) the figure was 6.31 µM [falling, partial curve]; with `O=C(NCc1ccco1)C1CCN(C(=O)c2cc3sccc3n2Cc2ccc(Cl)cc2)CC1`, 7.94 µM [falling, full curve].
As for `CN1CCN(c2ncnc3c2cnn3-c2cccc(Cl)c2)CC1`, the AC50 under setting [1] was 10 µM [falling, partial curve].
In the case of `Cc1cccc(N2CCN(C3=C(c4ccccc4)C(=O)c4ccccc43)CC2)c1C`, the AC50 under setting [1] is 7.94 µM [falling, partial curve].
On the same count and under the same terms, for `COc1cc(OC)c(OC)cc1/C=C/c1nc2cc3ccccc3cc2c(=O)n1-c1ccccc1Br` the value was 1.58 µM [falling, full curve]; for `c1ccc(C2=Nn3c(nnc3-c3cc(-c4ccccc4)n[nH]3)SC2)cc1`, 25.1 µM [falling, single point]; for `COCCNC(=O)c1cc(-c2cccc(OC)c2)on1`, 12.6 µM [falling, partial curve].
Still for that read-out and setting: for `CCN1CCN(c2oc(-c3ccc(COc4ccccc4C)o3)nc2C#N)CC1` the value was 31.6 µM [falling, single point]; for `O=C(Nc1cccc(-c2nc3cc(Cl)ccc3o2)c1)C1CCCO1` (centres undefined), 15.8 µM [falling, single point].
Still for that read-out and setting: with `Cc1noc(C)c1S(=O)(=O)N(CC(=O)Nc1ccc(F)cc1F)c1ccc(C(C)C)cc1` the figure was 3.98 µM [falling, full curve].
On to `CCCNC(=O)c1ccc2c(c1)nc1n2CCCCC1`, for which, under setting [1], the AC50 is 39.8 µM [falling, single point].
In the case of `COc1cccc(CNC(=O)Cn2ncn3nc(-c4cccs4)cc3c2=O)c1`, the AC50 under setting [1] is 31.6 µM [falling, single point].
With `COc1ccc(Cn2ccc3nc(C)c(C(=O)Nc4cccc(SC)c4)cc3c2=O)cc1`, under setting [1], the AC50 is 15.8 µM [falling, partial curve].
Still for that read-out and setting: for `COc1cc(OC)cc(C(=O)Nc2cc3c(cc2N2CCCCC2)n(C)c(=O)n3C)c1` the value was 39.8 µM [falling, single point].
Same read-out and setting: with `CCN(CCNC(=O)C1CCN(Cc2nc(-c3ccc(Cl)cc3)oc2C)CC1)c1ccccc1` the figure was 10 µM [falling, partial curve]; with `COc1ccc(C)cc1-n1nnnc1SCc1nc2ccccc2s1`, 6.31 µM [falling, partial curve].
Still for that read-out and setting: with `Cc1ccc(N2C(=O)CC(c3ccccc3F)C3=C2COC3=O)cc1Cl` (centres undefined) the figure was 20 µM [falling, single point]; with `O=C(NCCc1c[nH]c2ccccc12)c1ccc(S(=O)(=O)NCc2ccco2)cc1`, 20 µM [falling, partial curve].
On to `CC(C)c1ccc(C2Sc3ccccc3NC3=C2C(=O)c2ccccc23)cc1` (centres undefined), for which the AC50 under setting [1] was 3.98 µM [falling, full curve].
Still for that read-out and setting: for `COC(=O)COc1ccc(C2C(C(=O)OC)=C(C)NC3=C2C(=O)c2ccccc23)cc1OC` (centres undefined) the value was 10 µM [falling, partial curve]; for `COc1ccc(CCNC(=O)Cc2c(C)c3cc4c(C(C)(C)C)coc4c(C)c3oc2=O)cc1OC`, 12.6 µM [falling, partial curve].
Same read-out and setting: for `Cc1ccc2c(c1)cc1c(=O)n(Cc3cccc(Cl)c3)nc(C)n12` the value was 3.98 µM [falling, partial curve].
Still for that read-out and setting: for `O=C(CSC1=NCCS1)Nc1nc(-c2ccccc2)cs1` the value was 15.8 µM [falling, partial curve]; for `O=C(Nc1cc(Cl)ccc1Cl)c1cc(S(=O)(=O)NCCc2ccccc2)ccc1F`, 15.8 µM [falling, partial curve]; for `Cc1ccc(C(=O)N(Cc2ccco2)Cc2sccc2C)cc1`, 25.1 µM [falling, partial curve].
As to `O=C(COc1ccccc1F)Nc1ccccc1C(=O)OCc1cc(=O)n2nc(C3CC3)sc2n1`, the AC50 under setting [1] is 3.98 µM [falling, full curve].
On the same count and under the same terms, for `O=C(NCc1ccc(Cl)cc1)c1cc2c(s1)-c1ccccc1SC2` the value was 10 µM [falling, partial curve].
Still for that read-out and setting: with `COc1ccc(C(=O)Nc2cccc(-c3cn4ccsc4n3)c2)cc1OC` the figure was 25.1 µM [falling, partial curve].
Still for that read-out and setting: with `CCCN1CCN(CCCNC(=O)c2ccc3c(c2)sc2nc(-c4ccc(OC)cc4)cn23)CC1` the figure was 20 µM [falling, partial curve]; with `Cc1ccccc1Cn1c(CN2CCC(C(=O)NCc3cccnc3)CC2)cc2ccccc21`, 15.8 µM [falling, single point].
As to `CCOC(=O)C1CCN(C(=O)Cn2nc(C)n3c(cc4sccc43)c2=O)CC1`, the AC50 under setting [1] is 0.00794 µM [falling, full curve, poor fit].
Consider `Cn1c(SCC(=O)N2CCOCC2)ncc(C(=O)Nc2ccccc2)c1=O`, for which the half-maximal activity concentration (AC50) (measured here: IkB-luc green channel) is 31.6 µM [rising, partial curve] and the AC50 (measured here: control luc red channel) was 15.8 µM [rising, partial curve].
`COc1ccccc1-n1c(CNC(=O)c2ccco2)nnc1SCC(=O)Nc1cc(C)ccc1C`: the AC50 under setting [1] was 0.631 µM [falling, full curve].
On the same count and under the same terms, for `CCc1ccc(NC(=O)CCn2c(-c3ccc(OC)cc3)cc(C(C)=O)c2C)cc1` the value was 1.26 µM [rising, full curve]; for `c1ccc(-c2cc3c(N4CCOCC4)ncnc3s2)cc1`, 10 µM [falling, partial curve].
Same read-out and setting: with `CC1CCN(c2nc3c(S(=O)(=O)c4ccccc4)nnn3c3ccc(Cl)cc23)CC1` the figure was 12.6 µM [falling, partial curve]; with `COc1cccc(Cc2nc3ccccc3nc2SCC(=O)NCCc2ccccc2)c1`, 12.6 µM [falling, partial curve].
The same measure, in the same setting: with `COc1ccc(C2C=C(c3ccc(F)cc3)Nc3nc(-c4ccc(Cl)cc4)nn32)cc1` (centres undefined) the figure was 20 µM [falling, single point].
For `Cc1ccc(-c2nc3ccccc3[nH]2)cc1NC(=O)COc1ccccc1[N+](=O)[O-]`, the AC50 under setting [1] was 39.8 µM [falling, single point].
Take `COc1ccccc1NC(=O)NCCCN1CCN(c2ccc(F)cc2)CC1`: the AC50 under setting [1] was 10 µM [falling, partial curve].
On to `O=C(Nc1ccc2nc(-c3cccs3)c(-c3cccs3)nc2c1)N1CCOCC1`, for which the AC50 under setting [1] is 7.94 µM [falling, partial curve].
As for `CC(=O)c1ccc(NC(=O)Cn2nc(C(F)(F)F)c3c2CCC3)cc1`, under setting [1], the AC50 is 15.8 µM [falling, partial curve].
Still for that read-out and setting: for `Cc1ccc(CSc2c(C)cnc3c2c(=O)n(C)c(=O)n3C)cc1` the value was 1 µM [falling, single point]; for `O=C(CCn1c(=O)oc2ccccc21)N1CCN(C(c2ccccc2)c2ccccc2)CC1`, 20 µM [falling, partial curve]; for `CCOC(=O)C1=C(CN2CCN(c3ccc(Cl)cc3)CC2)NC(=O)NC1c1ccc(OC)cc1` (centres undefined), 10 µM [falling, partial curve].
As for `COc1cccc2sc(NC(=O)c3ccc4c(c3)OCCO4)nc12`, under setting [1], the AC50 was 2 µM [falling, partial curve].
With `CCCNC(=O)NC(=O)COC(=O)c1ccc(OC)c(S(=O)(=O)N2CCCc3ccccc32)c1`, under setting [1], the AC50 was 31.6 µM [falling, partial curve].
On the same count and under the same terms, with `CCCc1ccc(-c2ccc(F)c(N)c2)nc1` the figure was 12.6 µM [falling, partial curve].
On the same count and under the same terms, with `Cc1ccc(Cl)cc1N1CCN(C(=O)Cn2cnc3onc(-c4ccc(F)cc4)c3c2=O)CC1` the figure was 7.94 µM [falling, partial curve]; with `COc1ccc(-c2cc3nc(C)c(CCC(=O)NCc4ccco4)c(C)n3n2)c(OC)c1`, 0.251 µM [falling, full curve].
On the same count and under the same terms, with `Cc1ccc2nc(-c3ccc(NC(=O)Cc4ccccc4)cc3)sc2c1` the figure was 7.94 µM [rising, partial curve].
Turning to `COC(=O)c1ccc(CSc2ncnc3c2oc2ccccc23)o1`, the AC50 under setting [1] is 1.26 µM [falling, full curve, poor fit].
